These are yes or no findings as the source states them, for the method shown. Binding seen in cells or lysates may run through a third protein. Binding calls can cover weak binding; strength is not graded here. Where a sequence is shown, tags or fusion partners need not be part of it.
Biological target: T1, FLAG-tagged PDK1 (UniProt O15530)
T1 sequence: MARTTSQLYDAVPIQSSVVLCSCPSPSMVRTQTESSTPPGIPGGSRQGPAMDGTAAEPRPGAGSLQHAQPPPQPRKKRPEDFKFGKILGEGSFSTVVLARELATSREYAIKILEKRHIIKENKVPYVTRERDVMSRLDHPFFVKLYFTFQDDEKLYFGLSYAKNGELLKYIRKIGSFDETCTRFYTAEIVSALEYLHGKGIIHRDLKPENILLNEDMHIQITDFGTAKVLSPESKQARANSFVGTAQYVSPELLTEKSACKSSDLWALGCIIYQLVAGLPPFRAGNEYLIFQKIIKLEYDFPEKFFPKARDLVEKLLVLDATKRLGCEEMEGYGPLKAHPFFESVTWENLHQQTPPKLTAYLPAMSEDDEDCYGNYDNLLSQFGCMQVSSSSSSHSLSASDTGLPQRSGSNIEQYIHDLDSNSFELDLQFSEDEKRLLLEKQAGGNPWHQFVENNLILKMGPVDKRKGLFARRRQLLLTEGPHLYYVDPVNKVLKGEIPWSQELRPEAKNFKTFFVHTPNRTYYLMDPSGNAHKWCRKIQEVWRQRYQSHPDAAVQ
Assay: co-IP; SkBr3 transfected with FLAG-PDK1; anti-FLAG IP, western blot for pAkt, EF1α and β-actin

“eukaryotic Elongation Factor 1 alpha (EF1α) (human (endogenous in SkBr3 and HCC1937))” was tested, and the binding was “binds”.

Reference: article PMC2727493
